Laboratory results: PubChem BioAssay AID1159578 (Peter MacCallum Cancer Centre, 2015)
This is one part, drawn at random, of about 18,000 reagents tested. Of all reagents, about 1,030 (5.7%) are marked active. 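Inactive calls also include pools with fewer than 3300 nuclei, whose migration was not assessed.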 Raw values are not corrected between plates. A number with no mark means an inactive call. Further read-outs or replicates are left out here. No sequences are given here.

Screen: 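Genome-wide hunt for genes controlling movement of lymphatic endothelial cells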 (primary screen)
Cells: human lymphatic endothelial cells
Reagent: siRNA pool against human genes, 40 nM
Time to read-out: 48 h after transfection
Read-out: 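High-content imaging of dye-stained cells in a scratch assay measures filled wound area and nuclei per well; duplicate means given as ratio to mock and robust z-score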
Scale: migration robust z-score: higher = faster migration into the scratch; nuclei per well: higher = more cells in the well
Hit rule: 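Migration changed when robust z exceeds 2 or falls below -2 and mean nuclei number is at least 3300; otherwise not called changed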
Calls: active = migration changed; inactive = no migration change, or too few cells

CYYR1 — migration robust z-score: -1.19; migration class with cell-count check: migration z between -2 and 2; enough cells; nuclei per well, duplicate mean: 5082
TBATA — migration robust z-score: 0.1; migration class with cell-count check: migration z between -2 and 2; enough cells; nuclei per well, duplicate mean: 4880
COL16A1 — migration robust z-score: -0.1; migration class with cell-count check: migration z between -2 and 2; enough cells; nuclei per well, duplicate mean: 5475
MAP2K6 — migration robust z-score: -0.88; migration class with cell-count check: migration z between -2 and 2; enough cells; nuclei per well, duplicate mean: 6028
CAPZA2 — migration robust z-score: 1.49; migration class with cell-count check: migration z between -2 and 2; enough cells; nuclei per well, duplicate mean: 5798
XK — migration robust z-score: 0.75; migration class with cell-count check: migration z between -2 and 2; enough cells; nuclei per well, duplicate mean: 5585
INTS14 — migration robust z-score: -2.18 (active); migration class with cell-count check: migration z below -2; enough cells; nuclei per well, duplicate mean: 5378
PNLIPRP3 — migration robust z-score: -0.9; migration class with cell-count check: migration z between -2 and 2; enough cells; nuclei per well, duplicate mean: 5940
IL21 — migration robust z-score: 0.48; migration class with cell-count check: migration z between -2 and 2; enough cells; nuclei per well, duplicate mean: 5288
RBM26 — migration robust z-score: 0.88; migration class with cell-count check: migration z between -2 and 2; enough cells; nuclei per well, duplicate mean: 5879
HNRNPM — migration robust z-score: -0.58; migration class with cell-count check: migration z between -2 and 2; enough cells; nuclei per well, duplicate mean: 5998
FAM86B1 — migration robust z-score: -1.51; migration class with cell-count check: migration z between -2 and 2; enough cells; nuclei per well, duplicate mean: 5155

A stretch from the list above, as a working copy:
PNLIPRP3 — migration robust z-score: -0.9; migration class with cell-count check: migration z between -2 and 2; enough cells; nuclei per well, duplicate mean: 5940
IL21 — migration robust z-score: 0.48; migration class with cell-count check: migration z between -2 and 2; enough cells; nuclei per well, duplicate mean: 5288
